This passage reports binding results from publication PMC11319772.

Sequences of proteins named here, by UniProt entry; tags and fusion partners are left off.
UniProt P42227: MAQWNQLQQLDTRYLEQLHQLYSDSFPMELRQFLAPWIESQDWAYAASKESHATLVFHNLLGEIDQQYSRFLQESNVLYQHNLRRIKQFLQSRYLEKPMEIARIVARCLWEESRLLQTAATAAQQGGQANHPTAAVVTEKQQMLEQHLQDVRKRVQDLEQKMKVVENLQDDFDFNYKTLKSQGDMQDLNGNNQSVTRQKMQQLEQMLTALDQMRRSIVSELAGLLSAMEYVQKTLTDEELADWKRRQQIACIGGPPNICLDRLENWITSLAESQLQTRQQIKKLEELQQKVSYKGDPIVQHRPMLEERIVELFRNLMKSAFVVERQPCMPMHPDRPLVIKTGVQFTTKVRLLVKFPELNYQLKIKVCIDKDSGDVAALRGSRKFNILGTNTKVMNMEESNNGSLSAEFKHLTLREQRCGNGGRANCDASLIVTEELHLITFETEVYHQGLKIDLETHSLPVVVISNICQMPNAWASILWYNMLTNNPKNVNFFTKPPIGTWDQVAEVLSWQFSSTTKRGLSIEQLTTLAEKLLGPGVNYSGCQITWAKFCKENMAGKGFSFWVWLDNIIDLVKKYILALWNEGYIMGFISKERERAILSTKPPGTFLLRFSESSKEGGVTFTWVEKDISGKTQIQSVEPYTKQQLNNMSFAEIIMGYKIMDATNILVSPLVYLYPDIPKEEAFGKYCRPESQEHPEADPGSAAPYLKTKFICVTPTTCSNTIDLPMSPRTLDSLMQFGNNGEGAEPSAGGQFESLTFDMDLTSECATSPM

No constants are given. Whether binding was seen depends on the method and setting. Binding seen in cells or lysates may run through a third protein. Some entries that bind do so weakly or less than the wild type.

The target in the assay is T1, IRAK-M (mouse (endogenous in bone marrow neutrophils)) (UniProt Q8K4B2).
T1 sequence: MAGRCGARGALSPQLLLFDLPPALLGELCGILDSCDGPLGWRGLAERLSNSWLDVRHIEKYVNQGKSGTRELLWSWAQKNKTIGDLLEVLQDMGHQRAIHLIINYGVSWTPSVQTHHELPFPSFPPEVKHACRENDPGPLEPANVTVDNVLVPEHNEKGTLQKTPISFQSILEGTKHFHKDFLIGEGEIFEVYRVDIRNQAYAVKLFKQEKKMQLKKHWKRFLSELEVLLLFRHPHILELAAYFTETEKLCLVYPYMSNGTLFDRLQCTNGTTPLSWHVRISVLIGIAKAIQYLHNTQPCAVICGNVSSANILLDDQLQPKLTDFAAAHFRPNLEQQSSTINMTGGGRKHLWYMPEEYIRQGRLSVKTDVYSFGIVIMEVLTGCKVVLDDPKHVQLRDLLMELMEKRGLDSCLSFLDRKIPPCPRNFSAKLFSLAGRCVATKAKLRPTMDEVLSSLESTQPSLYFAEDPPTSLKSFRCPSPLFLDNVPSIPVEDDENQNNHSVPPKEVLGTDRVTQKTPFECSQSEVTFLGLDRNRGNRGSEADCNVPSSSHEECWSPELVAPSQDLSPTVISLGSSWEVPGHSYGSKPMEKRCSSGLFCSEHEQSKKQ
Kind of assay: co-IP; whole-cell lysates of WT bone marrow neutrophils in Nonidet P40 lysis buffer; immunoprecipitation with 10 ug anti-IRAK-M antibody in 500 ul lysate, 4 °C overnight, Protein A/G beads; immunoblotting for STAT3 and STAT1.

Take STAT3 (from UniProt P42227 1-770): the binding entry is given as “binds”.
